Measured values reported in paper PMC11730779.
Changes are numbered by the printed parent chain. Names may count otherwise. These are yes or no findings as the source states them, for the method shown. In cells and extracts the contact can be indirect. Some entries that bind do so weakly or less than the wild type. Blank lines part the entries; values can stand above or below the binder they belong to.

Sequences of proteins named here, by UniProt entry; tags and fusion partners are left off.
UniProt P11881: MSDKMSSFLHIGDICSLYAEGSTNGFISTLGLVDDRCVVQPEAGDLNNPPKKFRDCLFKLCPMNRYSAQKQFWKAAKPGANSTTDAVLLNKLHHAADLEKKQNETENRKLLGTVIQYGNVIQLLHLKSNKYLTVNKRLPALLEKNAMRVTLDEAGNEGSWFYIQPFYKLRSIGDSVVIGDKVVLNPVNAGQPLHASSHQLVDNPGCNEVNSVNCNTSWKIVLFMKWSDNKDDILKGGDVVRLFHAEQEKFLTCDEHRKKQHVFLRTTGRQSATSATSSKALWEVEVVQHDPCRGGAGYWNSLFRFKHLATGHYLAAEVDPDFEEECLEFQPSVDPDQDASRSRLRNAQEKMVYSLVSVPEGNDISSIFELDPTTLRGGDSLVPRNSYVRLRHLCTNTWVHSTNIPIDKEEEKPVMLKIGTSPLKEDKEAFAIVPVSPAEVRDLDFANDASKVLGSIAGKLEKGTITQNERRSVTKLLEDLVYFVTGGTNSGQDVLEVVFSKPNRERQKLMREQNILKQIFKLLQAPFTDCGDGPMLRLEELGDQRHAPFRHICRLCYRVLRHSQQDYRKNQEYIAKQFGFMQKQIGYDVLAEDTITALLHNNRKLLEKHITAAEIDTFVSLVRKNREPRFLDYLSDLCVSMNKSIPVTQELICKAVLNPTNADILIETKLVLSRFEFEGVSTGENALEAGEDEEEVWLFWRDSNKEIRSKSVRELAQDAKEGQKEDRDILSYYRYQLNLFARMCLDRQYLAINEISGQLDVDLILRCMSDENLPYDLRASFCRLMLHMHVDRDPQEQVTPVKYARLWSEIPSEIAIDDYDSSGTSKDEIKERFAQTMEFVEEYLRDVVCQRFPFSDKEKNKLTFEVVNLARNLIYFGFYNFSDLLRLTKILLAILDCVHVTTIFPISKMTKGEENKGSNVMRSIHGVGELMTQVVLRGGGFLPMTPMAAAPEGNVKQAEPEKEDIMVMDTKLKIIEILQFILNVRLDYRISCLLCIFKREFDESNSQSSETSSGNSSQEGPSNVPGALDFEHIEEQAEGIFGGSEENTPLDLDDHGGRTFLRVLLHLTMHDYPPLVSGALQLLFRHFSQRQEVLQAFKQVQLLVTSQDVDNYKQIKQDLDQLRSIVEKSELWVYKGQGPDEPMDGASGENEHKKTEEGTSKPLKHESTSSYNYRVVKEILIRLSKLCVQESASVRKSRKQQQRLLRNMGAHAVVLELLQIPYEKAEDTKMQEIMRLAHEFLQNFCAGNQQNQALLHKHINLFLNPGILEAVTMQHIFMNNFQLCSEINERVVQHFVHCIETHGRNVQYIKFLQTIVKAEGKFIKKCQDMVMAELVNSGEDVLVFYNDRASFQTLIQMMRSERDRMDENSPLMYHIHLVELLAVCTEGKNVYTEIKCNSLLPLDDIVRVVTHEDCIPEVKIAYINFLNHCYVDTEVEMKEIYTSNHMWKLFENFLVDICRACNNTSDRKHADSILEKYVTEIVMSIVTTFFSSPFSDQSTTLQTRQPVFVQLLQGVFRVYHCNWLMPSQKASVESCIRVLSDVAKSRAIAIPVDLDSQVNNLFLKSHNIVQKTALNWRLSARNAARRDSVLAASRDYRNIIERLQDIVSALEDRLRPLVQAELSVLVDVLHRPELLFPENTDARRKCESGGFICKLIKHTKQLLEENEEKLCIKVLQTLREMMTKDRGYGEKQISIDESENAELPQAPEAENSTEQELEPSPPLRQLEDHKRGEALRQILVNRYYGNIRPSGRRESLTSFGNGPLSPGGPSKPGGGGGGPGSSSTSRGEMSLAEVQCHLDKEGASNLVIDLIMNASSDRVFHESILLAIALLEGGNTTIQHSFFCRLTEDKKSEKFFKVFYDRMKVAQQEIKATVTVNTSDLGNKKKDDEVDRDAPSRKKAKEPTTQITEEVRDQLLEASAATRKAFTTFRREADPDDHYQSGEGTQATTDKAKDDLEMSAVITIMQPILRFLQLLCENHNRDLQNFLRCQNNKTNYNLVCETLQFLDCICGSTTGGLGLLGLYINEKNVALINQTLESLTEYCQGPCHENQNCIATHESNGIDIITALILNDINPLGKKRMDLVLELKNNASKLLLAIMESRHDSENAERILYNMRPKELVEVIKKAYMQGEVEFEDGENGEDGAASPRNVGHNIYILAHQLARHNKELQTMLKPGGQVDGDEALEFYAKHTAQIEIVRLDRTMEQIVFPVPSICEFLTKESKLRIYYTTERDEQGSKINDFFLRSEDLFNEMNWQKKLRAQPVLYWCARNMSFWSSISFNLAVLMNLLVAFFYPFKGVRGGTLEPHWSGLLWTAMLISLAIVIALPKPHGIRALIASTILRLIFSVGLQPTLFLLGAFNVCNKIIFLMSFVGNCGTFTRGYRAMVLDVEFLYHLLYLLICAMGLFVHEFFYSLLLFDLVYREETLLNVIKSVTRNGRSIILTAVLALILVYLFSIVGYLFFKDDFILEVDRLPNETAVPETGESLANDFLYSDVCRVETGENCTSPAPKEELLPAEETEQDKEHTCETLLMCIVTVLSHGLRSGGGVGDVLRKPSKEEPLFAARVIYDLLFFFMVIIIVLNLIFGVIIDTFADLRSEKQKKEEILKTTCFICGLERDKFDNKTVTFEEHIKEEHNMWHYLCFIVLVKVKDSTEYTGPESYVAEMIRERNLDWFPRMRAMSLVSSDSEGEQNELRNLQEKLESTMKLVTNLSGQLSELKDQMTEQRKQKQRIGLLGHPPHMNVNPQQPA
UniProt Q14643: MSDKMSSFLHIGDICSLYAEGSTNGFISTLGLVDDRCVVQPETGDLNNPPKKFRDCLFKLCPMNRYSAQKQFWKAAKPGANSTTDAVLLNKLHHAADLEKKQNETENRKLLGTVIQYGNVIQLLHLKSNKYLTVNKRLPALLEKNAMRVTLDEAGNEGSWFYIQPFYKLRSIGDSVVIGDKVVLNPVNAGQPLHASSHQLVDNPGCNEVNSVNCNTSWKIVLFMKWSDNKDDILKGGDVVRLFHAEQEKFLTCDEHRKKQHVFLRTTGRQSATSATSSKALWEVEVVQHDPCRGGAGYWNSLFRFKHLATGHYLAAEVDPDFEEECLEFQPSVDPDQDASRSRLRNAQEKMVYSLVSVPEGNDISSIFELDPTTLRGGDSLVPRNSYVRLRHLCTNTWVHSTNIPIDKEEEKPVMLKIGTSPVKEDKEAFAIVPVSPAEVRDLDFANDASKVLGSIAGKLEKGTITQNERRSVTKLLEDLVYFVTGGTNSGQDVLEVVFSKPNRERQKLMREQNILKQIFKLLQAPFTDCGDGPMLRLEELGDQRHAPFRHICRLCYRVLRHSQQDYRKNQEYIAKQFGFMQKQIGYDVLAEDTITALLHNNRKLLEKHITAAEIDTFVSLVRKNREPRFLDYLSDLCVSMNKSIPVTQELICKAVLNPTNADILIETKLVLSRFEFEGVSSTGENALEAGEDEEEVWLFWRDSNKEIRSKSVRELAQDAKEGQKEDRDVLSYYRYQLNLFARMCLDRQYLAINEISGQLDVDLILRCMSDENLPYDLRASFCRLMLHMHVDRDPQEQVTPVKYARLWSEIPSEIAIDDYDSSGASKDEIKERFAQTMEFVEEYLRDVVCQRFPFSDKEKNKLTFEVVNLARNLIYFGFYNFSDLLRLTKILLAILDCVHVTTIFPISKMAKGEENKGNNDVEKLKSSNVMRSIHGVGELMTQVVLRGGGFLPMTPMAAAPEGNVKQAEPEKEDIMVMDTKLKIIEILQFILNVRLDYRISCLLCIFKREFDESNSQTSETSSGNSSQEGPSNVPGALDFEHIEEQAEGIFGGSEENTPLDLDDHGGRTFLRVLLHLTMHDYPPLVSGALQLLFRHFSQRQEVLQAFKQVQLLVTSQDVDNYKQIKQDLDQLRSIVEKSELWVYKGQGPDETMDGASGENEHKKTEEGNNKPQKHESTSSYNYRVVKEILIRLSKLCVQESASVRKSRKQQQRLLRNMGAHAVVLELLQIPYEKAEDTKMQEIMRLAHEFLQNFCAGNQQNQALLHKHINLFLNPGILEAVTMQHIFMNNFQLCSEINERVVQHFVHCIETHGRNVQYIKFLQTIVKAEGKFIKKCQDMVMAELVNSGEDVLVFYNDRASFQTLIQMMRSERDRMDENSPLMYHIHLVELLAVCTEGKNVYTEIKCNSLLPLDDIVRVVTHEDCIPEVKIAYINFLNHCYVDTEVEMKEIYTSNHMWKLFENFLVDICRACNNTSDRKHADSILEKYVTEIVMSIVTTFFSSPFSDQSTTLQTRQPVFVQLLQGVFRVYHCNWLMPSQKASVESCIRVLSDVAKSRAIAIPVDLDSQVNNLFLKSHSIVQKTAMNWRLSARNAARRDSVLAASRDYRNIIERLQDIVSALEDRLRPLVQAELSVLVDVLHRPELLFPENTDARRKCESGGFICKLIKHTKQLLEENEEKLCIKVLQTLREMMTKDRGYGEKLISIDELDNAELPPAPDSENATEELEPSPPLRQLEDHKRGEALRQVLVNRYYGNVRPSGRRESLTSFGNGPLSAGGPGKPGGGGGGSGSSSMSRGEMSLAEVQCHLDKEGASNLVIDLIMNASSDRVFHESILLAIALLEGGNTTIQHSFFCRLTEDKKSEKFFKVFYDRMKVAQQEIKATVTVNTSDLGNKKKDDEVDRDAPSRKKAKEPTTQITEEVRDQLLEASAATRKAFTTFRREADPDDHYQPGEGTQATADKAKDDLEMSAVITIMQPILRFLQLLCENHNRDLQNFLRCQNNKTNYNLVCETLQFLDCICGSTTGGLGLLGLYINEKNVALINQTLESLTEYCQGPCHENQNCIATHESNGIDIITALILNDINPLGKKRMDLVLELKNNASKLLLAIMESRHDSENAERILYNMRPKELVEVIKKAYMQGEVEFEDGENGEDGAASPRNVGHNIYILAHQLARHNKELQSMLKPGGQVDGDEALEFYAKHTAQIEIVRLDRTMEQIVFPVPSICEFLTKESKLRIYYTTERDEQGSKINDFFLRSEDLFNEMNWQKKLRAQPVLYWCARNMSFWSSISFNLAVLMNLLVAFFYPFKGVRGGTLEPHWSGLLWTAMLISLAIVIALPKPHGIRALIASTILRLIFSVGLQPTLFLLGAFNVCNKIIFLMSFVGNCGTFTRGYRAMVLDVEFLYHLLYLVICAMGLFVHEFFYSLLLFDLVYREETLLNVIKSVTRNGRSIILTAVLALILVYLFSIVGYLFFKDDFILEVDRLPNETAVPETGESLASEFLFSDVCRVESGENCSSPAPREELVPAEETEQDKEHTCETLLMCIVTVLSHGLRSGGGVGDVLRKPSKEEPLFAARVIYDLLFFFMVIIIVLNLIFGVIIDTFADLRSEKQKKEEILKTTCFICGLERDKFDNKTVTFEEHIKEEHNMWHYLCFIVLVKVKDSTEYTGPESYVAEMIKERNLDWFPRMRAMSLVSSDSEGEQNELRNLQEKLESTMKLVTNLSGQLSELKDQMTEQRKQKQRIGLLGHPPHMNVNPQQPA

Columns and labels:
[1] = target: inositol 1,4,5-trisphosphate receptor type 1 (IP3R1), endogenous in mouse pituitary αT3 cells (mouse (endogenous in αT3)) (UniProt P11881); test: co-IP; endogenous proteins of WT αT3 cells (untreated or 100 nM CalA and/or 20 µM Fsk, 10 min); 1% CHAPS lysis buffer; anti-IP3R1 and protein A-Sepharose, ~16 h, 4 °C; Bok found by immunoblot (Bok antibodies, RRXpS) or mass spectrometry
[2] = target: IP3R1, endogenous in HEK-IP3R1 cells (human (endogenous in HEK-IP3R1)) (UniProt Q14643); test: co-IP; HEK-IP3R1 cells stably expressing Bok constructs; 1% CHAPS lysates; IP of endogenous IP3R1 with anti-IP3R1, immunoblot for Bok; for Bok^WT also after 1 µM PGE1 for 2.5 or 10 min
[3] = target: IP3R1, endogenous in HEK-IP3R1 cells (human (endogenous in HEK-IP3R1)) (UniProt Q14643); test: co-IP; IP3R1 IPs (Bok-IP3R1 complex on beads) from HEK-IP3R1 cells stably expressing Bok^WT, resuspended in phosphorylation buffer (120 mM KCl, 50 mM Tris, 1 mM MgCl2, 1 mM ATP, pH 7.2) without or with the catalytic subunit of PKA (1:100), 32 °C, 10 min; immunoblot for Bok

B3: Bok^WT (exogenous wild-type Bok) (protein, UniProt Q9UMX3 1-212)
chain: MEVLRRSSVFAAEIMDAFDRSPTDKELVAQAKALGREYVHARLLRAGLSWSAPERAAPVPGRLAEVCAVLLRLGDELEMIRPSVYRNVARQLHISLQSEPVVTDAFLAVAGHIFSAGITWGKVVSLYAVAAGLAVDCVRQAQPAMVHALVDCLGEFVRKTLATWLRRRGGWTDVLKCVVSTDPGLRSHWLVAALCSFGRFLKAAFFVLLPER
binding [2]: binds
binding [3]: binds

B4: Bok^S8E (protein, UniProt Q9UMX3 1-212)
chain: B3 chain with S8E
binding [2]: binds

B5: Bok^S8A (protein, UniProt Q9UMX3 1-212)
chain: B3 chain with S8A
binding [2]: binds

B6: Bok^WT phosphorylated at Ser-8 (exogenous) (protein, UniProt Q9UMX3 1-212)
chain: B3 chain
modifications: phosphoserine at 8 (Ser-8)
binding [2]: binds
binding [3]: binds

Next, values leading:

binding [1]: binds
B1: Bok (Bcl-2-related ovarian killer), endogenous in mouse pituitary αT3 cells (protein, UniProt O35425 1-213)
chain: MEVLRRSSVFAAEIMDAFDRSPTDKELVAQAKALGREYVHARLLRAGLSWSAPERASPAPGGRLAEVCTVLLRLGDELEQIRPSVYRNVARQLHIPLQSEPVVTDAFLAVAGHIFSAGITWGKVVSLYSVAAGLAVDCVRQAQPAMVHALVDCLGEFVRKTLATWLRRRGGWTDVLKCVVSTDPGFRSHWLVATLCSFGRFLKAAFFLLLPER

binding [1]: binds
B2: Bok phosphorylated at Ser-8, endogenous in αT3 cells treated with CalA and Fsk (protein, UniProt O35425 1-213)
chain: B1 chain
modifications: phosphoserine at 8 (Ser-8)
